# Values from PubChem BioAssay AID1259405 (NCATS, 2018)
# Assay: 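Mouse-designed siRNAs used to find CHO productivity engineering targets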 (primary screen)
# System: Chinese hamster CHO-K1 ovary cells with stable secreted eGFP expression
# Reagent: single siRNA against mouse genes, 0.8 pmol siRNA per well (2 µl of 400 nM stock)
# Timing: 3 days
# Measurement: 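Per-well intracellular GFP measured by laser scanning cytometry, plus viability from ATP luminescence, each relative to plate median of non-targeting control wells, in %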
# Reading the numbers: GFP, % of control: higher = more GFP per well, higher productivity; viability (ATP), % of control: higher = more viable cells (more ATP)
# Call rule: 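Called active when intracellular GFP, relative to negative control, is at or above 120%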
# Here is an unselected part of about 50,000 reagents. About 4,000 of them (8%) count as active. 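Mouse siRNA library applied to hamster cells; one well for each siRNA.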
gene,PubChem SID,"GFP, % of control","viability (ATP), % of control",outcome
Or4g16 (olfactory receptor family 4 subfamily G member 16),SID363554104,88.3,69.3,inactive
Or4g16 (olfactory receptor family 4 subfamily G member 16),SID363567551,67.3,66.2,inactive
Or4g16 (olfactory receptor family 4 subfamily G member 16),SID363584908,56.7,107,inactive
Tspan15 (tetraspanin 15),SID363541390,96.8,82,inactive
Tspan15 (tetraspanin 15),SID363556017,52.8,52.8,inactive
Tspan15 (tetraspanin 15),SID363566306,78.3,78.6,inactive
Rpl10 (ribosomal protein L10),SID363553959,76.5,55,inactive
Rpl10 (ribosomal protein L10),SID363561916,39.6,24.5,inactive
Rpl10 (ribosomal protein L10),SID363565654,26.7,21.5,inactive
Grhl1 (grainyhead like transcription factor 1),SID363541085,55.9,66.2,inactive
Grhl1 (grainyhead like transcription factor 1),SID363555712,79.6,78.9,inactive
Grhl1 (grainyhead like transcription factor 1),SID363566001,118,61.9,inactive
Ppm1k (protein phosphatase 1K (PP2C domain containing)),SID363575264,103,83.2,inactive
Ppm1k (protein phosphatase 1K (PP2C domain containing)),SID363580896,84.2,55.2,inactive
Ppm1k (protein phosphatase 1K (PP2C domain containing)),SID363583008,97.2,74.5,inactive
Faf1 (Fas-associated factor 1),SID363539897,94.8,78.4,inactive
Faf1 (Fas-associated factor 1),SID363561198,55,72.8,inactive
Faf1 (Fas-associated factor 1),SID363564234,73.8,70.7,inactive
Macrod1 (mono-ADP ribosylhydrolase 1),SID363539522,60.9,74.4,inactive
Macrod1 (mono-ADP ribosylhydrolase 1),SID363560823,52.7,76.9,inactive
Macrod1 (mono-ADP ribosylhydrolase 1),SID363564913,89.6,88.2,inactive
Lrig2 (leucine-rich repeats and immunoglobulin-like domains 2),SID363544332,80.1,81.8,inactive
Lrig2 (leucine-rich repeats and immunoglobulin-like domains 2),SID363550660,88.2,82.2,inactive
Lrig2 (leucine-rich repeats and immunoglobulin-like domains 2),SID363557209,61.7,70.1,inactive
"Wwc2 (WW, C2 and coiled-coil domain containing 2)",SID363539819,83.5,78.6,inactive
"Wwc2 (WW, C2 and coiled-coil domain containing 2)",SID363561120,153,105,active
"Wwc2 (WW, C2 and coiled-coil domain containing 2)",SID363565210,88.9,70.3,inactive
"Rhpn1 (rhophilin, Rho GTPase binding protein 1)",SID363570301,60.7,89.3,inactive
"Rhpn1 (rhophilin, Rho GTPase binding protein 1)",SID363576637,52.9,54.5,inactive
"Rhpn1 (rhophilin, Rho GTPase binding protein 1)",SID363579805,64.1,74.6,inactive
Or4a74 (olfactory receptor family 4 subfamily A member 74),SID363554211,105,86.8,inactive
Or4a74 (olfactory receptor family 4 subfamily A member 74),SID363567658,72.3,81.1,inactive
Or4a74 (olfactory receptor family 4 subfamily A member 74),SID363585015,52,87,inactive
Usp13 (ubiquitin specific peptidase 13 (isopeptidase T-3)),SID363574569,61.2,84.3,inactive
Usp13 (ubiquitin specific peptidase 13 (isopeptidase T-3)),SID363575625,32.2,47.4,inactive
Usp13 (ubiquitin specific peptidase 13 (isopeptidase T-3)),SID363580201,55,75.7,inactive
